One substance from publication PMC7958265 can be followed below.

By UniProt entry, the sequences of proteins in these tests, tags left out. Where a name states a change or a piece, a line headed by the entry shows the natural chain unless it says otherwise.
UniProt P09429: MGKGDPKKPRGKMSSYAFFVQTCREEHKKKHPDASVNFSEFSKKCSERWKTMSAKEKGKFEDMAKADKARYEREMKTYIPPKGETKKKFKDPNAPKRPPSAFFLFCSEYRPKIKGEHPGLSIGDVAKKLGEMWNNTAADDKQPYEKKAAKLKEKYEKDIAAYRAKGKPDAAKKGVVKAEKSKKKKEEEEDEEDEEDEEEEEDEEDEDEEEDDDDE
UniProt P02763: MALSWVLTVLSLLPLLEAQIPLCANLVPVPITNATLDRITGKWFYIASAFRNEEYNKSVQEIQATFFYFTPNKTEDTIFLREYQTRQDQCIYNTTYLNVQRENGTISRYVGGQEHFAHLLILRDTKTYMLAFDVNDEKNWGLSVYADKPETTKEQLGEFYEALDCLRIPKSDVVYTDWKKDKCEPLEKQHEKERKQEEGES

This assay has as its target HMGB1 recombinant protein (High mobility group box 1) (UniProt P09429). The assay can be described thus: ELISA; HMGB1 (500 ng to 1 µg) immobilised on the plate, α1-acid glycoprotein 1 µg/well in solution, streptavidin-HRP; 20 mM Hepes, 150 mM NaCl, 500 µM ZnCl2; pH 7.5, and a pH series from 7.1 to 7.8; RT; both purified.

Results are given in words; binding and its absence hold for the method and conditions named. Some results given as binding are weak or reduced against the parent protein; the word gives no strength.

“human α1-acid glycoprotein (from UniProt P02763 19-201)”: the binding entry is on record as “binds”.
